Percent viability data for 40 compounds are collected here from the supplement of paper PMC8256030.

Each structure is given as a SMILES string. Where “and” joins values, the source holds several entries; their conditions need not be identical. Identical values can stand only once. This is one part of the list. Single values are uncertain here, since repeats match poorly.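 HEK293T cells were given each compound shortly before transfection with a reporter in which red mCherry is followed by the SARS-CoV-2 frameshift element and then GFP in the −1 frame, so GFP appears only after frameshifting.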

For this test, the system named is HEK293T. Put plainly: percent viability (nuclei count) relative to control; higher = more viable cells. Conditions: 10 µM; 24 h.
On to `CN1CCC(OC(c2ccccc2)c2ccccc2)CC1` [diphenylpyraline], for which the percent viability is 147%.

Consider `CCOC(=O)C1=C(C)NC(CN(C)C)=C(C(=O)OCC)C1c1ccccc1/C=C/C(=O)OC(C)(C)C` (stereo not given) [teludipine], for which the percent viability was 336%.

Turning to `Cc1c(C)c2c(c(C)c1O)CC[C@@](C)(CCC[C@H](C)CCC[C@H](C)CCCC(C)C)O2`, the percent viability came to 248%.

For `CC/C=C\C/C=C\C/C=C\C/C=C\C/C=C\C/C=C\CCC(=O)O` [doconexent], the percent viability turned out to be 128%.

In the case of `Cc1cc(-n2c(=O)[nH]c(=O)n(C)c2=O)ccc1Oc1ccc(S(=O)(=O)C(F)(F)F)cc1` [ponazuril], the percent viability was determined as 152%.

`CCN(CC)Cc1cc(Nc2ccnc3cc(Cl)ccc23)ccc1O` [amodiaquine]: the percent viability was found to be 280%.

As for `NC(=O)N1CCC(CC(=O)N2CCC([C@H]3c4ncc(Br)cc4CCc4cc(Cl)cc(Br)c43)CC2)CC1` [lonafarnib], the percent viability is 127%.

`O=C(O)CCCc1ccccc1`: the percent viability is 176%.

As to `O=[N+]([O-])c1ccc(/C=C/c2cccc(CO)n2)o1` [nifurpirinol], the percent viability amounted to 148%.

For `O=C1CN(/N=C/c2ccc([N+](=O)[O-])o2)C(=O)N1` [nitrofurantoin], the percent viability was 137% and 323%.

Take `NC(=O)NNc1ccccc1` [phenicarbazide]: the percent viability turned out to be 97.8%.

As to `N[C@@H](Cc1c[nH]cn1)C(=O)O` [histidine], the percent viability came to 41.7%.

For the compound `CCN(CC)CCc1nc(-c2ccccc2)no1`, the percent viability is 340%.

As for `Nc1nc(OCc2cc(Br)cs2)c2[nH]cnc2n1` [lomeguatrib], the percent viability turned out to be 86.8%.

Consider `CCCC1O[C@@H]2C[C@H]3[C@@H]4CCC5=CC(=O)C=C[C@]5(C)[C@H]4[C@@H](O)C[C@]3(C)[C@]2(C(=O)CO)O1` (stereo not given in full) [budesonide], for which the percent viability came out at 200%.

Consider `COc1ccc(OC(=O)N(CC(=O)O)Cc2ccc(OCCc3nc(-c4ccccc4)oc3C)cc2)cc1` [muraglitazar], for which the percent viability came out at 65.6%.

With `Nc1nc2c(ncn2COC(CO)CO)c(=O)[nH]1` [Ganciclovir], the percent viability was found to be 265%.

As for `CCc1ncnc2cc(OC)c(OC)cc12` [quazodine], the percent viability was 139%.

Consider `C=C1CC[C@H](O)C/C1=C/C=C1\CCC[C@]2(C)[C@@H]([C@H](C)CC[C@@H](O)C(C)(C)O)CC[C@@H]12` [secalciferol], for which the percent viability worked out at 238%.

For `C#CCN(C)CCCOc1ccc(Cl)cc1Cl` [clorgiline], the percent viability came out at 273%.

As to `CC[C@]1(O)C[C@H]2CN(CCc3c([nH]c4ccccc34)[C@@](C(=O)OC)(c3cc4c(cc3OC)N(C=O)[C@H]3[C@@](O)(C(=O)OC)[C@H](OC(C)=O)[C@]5(CC)C=CCN6CC[C@]43[C@@H]65)C2)C1`, the percent viability stood at 17.8%.

On to `CC[C@]1(O)C[C@H]2CN(CCc3c([nH]c4ccccc34)[C@@](C(=O)OC)(c3cc4c(cc3OC)N(C=O)[C@H]3[C@@](O)(C(=O)OC)[C@H](OC(C)=O)[C@]5(CC)C=CCN6CC[C@]43[C@@H]65)C2)C1` [Vincristine], for which the percent viability worked out at 14%.

Turning to `CCN1CCN(C(=O)N[C@@H](C(=O)N[C@@H]2C(=O)N3[C@@H]2SC(C)(C)[C@@H]3C(=O)O)c2ccccc2)C(=O)C1=O`, the percent viability was 99.5%.

With `N=C(N)NC(=O)Cc1c(Cl)cccc1Cl`, the percent viability was 111%.

As to `CCCN(CCC)C(=O)C(CCC(=O)O)NC(=O)c1ccccc1` (stereo not given) [proglumide], the percent viability is 51.6%.

Regarding `C=Cc1c(C)c2cc3[nH]c(cc4nc(cc5nc(cc1[nH]2)C(C)=C5CCC(=O)O)C(CCC(=O)O)=C4C)c(C)c3C=C`, the percent viability worked out at 71.1%.

For the compound `O=C(O)CN1C[C@@H](c2cccs2)SC[C@H](N[C@@H](CCc2ccccc2)C(=O)O)C1=O` [temocaprilat], the percent viability stood at 287%.

Consider `Cc1oc(=O)oc1CN1CCN(c2cc3c(cc2F)c(=O)c(C(=O)O)c2n3C(C)S2)CC1` (stereo not given) [prulifloxacin], for which the percent viability turned out to be 198%.

For the compound `c1cc(CNCc2ccncc2)ccn1` [gapicomine], the percent viability worked out at 119%.

In the case of `C=C[C@@]1(C)CC(=O)[C@]2(O)[C@@]3(C)[C@@H](O)CCC(C)(C)[C@@H]3[C@H](O)[C@H](OC(C)=O)[C@@]2(C)O1`, the percent viability was 363%.

Regarding `CCCC(C(=O)OCCN(CC)CC)(c1ccccc1)c1ccccc1`, the percent viability was 361%.

Turning to `Cc1nc2n(c(=O)c1CCN1CCC(c3noc4cc(F)ccc34)CC1)CCCC2O` (stereo not given) [paliperidone], the percent viability was 245% and 193%.

In the case of `NC(=O)CC(N)C(=O)O` (stereo not given), the percent viability came out at 162%.

Take `O=C(C1CCCCC1)N1CC(=O)N2CCc3ccccc3C2C1` (stereo not given) [praziquantel]: the percent viability was 234% and 167%.

In the case of `CC(C)NC(=N)NC(=N)Nc1ccc(Cl)cc1` [proguanil], the percent viability was 421%.

Take `CCc1oc2ccccc2c1C(=O)c1ccc(O)cc1` [benzarone]: the percent viability came to 41.7%.

As to `COc1cc(CNC(=O)CCCC/C=C/C(C)C)ccc1O` [capsaicin], the percent viability is 157% and 402%.

Turning to `CCCCc1nc(Cl)c(CO)n1Cc1ccc(-c2ccccc2-c2nnn[nH]2)cc1` [Losartan potassium], the percent viability came to 69.2%.

On to `CC(=O)Nc1cccc(O)c1` [metacetamol], for which the percent viability came to 27%.

For the compound `CC(C)[C@H](N)C(=O)OCCOCn1cnc2c(=O)nc(N)[nH]c21` [Valaciclovir], the percent viability was determined as 203%.
